From publication PMC12186263, “Molecular Basis for Peptide Nitration by a Novel Cytochrome P450 Enzyme in RiPP Biosynthesis” (ACS Catalysis, 2025)

Tested on: ferrous RufO
Test: Stopped-flow transient kinetics of O2 and •NO binding to ferrous RufO
Conditions: 4 °C, pH 8.0
Method: 5 Transient kinetics of ferrous RufO binding to O2 and ^•NO. Spectral changes following the rapid mixing of 3.3 μM ferrous RufO bound to MRYLH with (A) 18 μM O2 and (C) 70 μM ^•NO over 0.2 s. The black-to-red spectral transitions represent the formation of (A) a ferric-superoxo intermediate and (C) a ferrous-nitrosyl complex. Insets show the time-dependent absorbance changes at 438 nm (the most pronounced shift), fitted using single exponential equations to determine rate constants (red trace). Dependence of rate constant as a function of gas concentration on (B) O2 and (D) ^•NO binding to ferrous RufO alone (blue) and peptide-bound RufO (red). Second-order rate constants were determined through linear fitting. TEXT PRINTED IN THE PICTURE: (A) + O2: kobs = 74.3 s^-1 | (B) RufO alone: k1 = 3.55 μM^-1 s^-1 | (B) peptide-bound: k1 = 3.83 μM^-1 s^-1 | (C) + •NO: kobs = 107.4 s^-1 | (D) RufO alone: k1 = 4.12 μM^-1 s^-1 | (D) peptide-bound: k1 = 2.35 μM^-1 s^-1
Stopped-flow spectroscopic data were collected using an Applied Photophysics SX20 stopped-flow system equipped with a photodiode array detector. The system was maintained in an anaerobic chamber (O2 < 1 ppm) and all sample preparation was done anaerobically. Measurements were performed at 4 °C. All samples were prepared in a buffer containing 50 mM Tris-HCl and 100 mM NaCl, pH 8.0. RufO was prereduced with a minimal amount of sodium dithionite. The final mixed concentrations of RufO and MRYLH (where applicable) were 3.3 and 24 μM, respectively. Solutions of varying O2 concentrations were prepared by diluting air-saturated buffer with anaerobic buffer. The concentrations of O2 in the air-saturated buffer were measured with an Oxygraph+ oxygen electrode (Hansatech). To generate ^•NO-containing solutions, 0.5 mM DEA NONOate (≥98%, Cayman Chemical) was incubated in anaerobic buffer for 4 h to ensure complete ^•NO release. The ^•NO concentrations were quantified based on a hemoglobin assay, and further dilutions were made with anaerobic buffer immediately prior to mixing. Experimental data were analyzed by the ProK software package from Applied Photophysics. The second-order rate constants were obtained from linear fitting, with the resulting equations: y = 3.55x + 54.4 for the mixing of RufO with O2, y = 3.83x + 6.5 for the ES complex with O2, y = 4.12x −158.0 for RufO with ^•NO, and y = 2.35x – 58.9 for the ES complex with ^•NO.
Figure S9. Transient kinetics of ferrous RufO alone binding to O2 and •NO Spectral changes following the rapid mixing of 3.3 μM ferrous RufO with (A) 18 μM O 2 and (B) μM •NO over 0.1 s. […] Insets show the time-dependent absorbance changes at 438 nm (the most pronounced shift), fitted using first-order exponential equations to determine rate constants (red trace). […]

Compound | Soret peak of complex formed (ferrous RufO alone) | Soret peak of complex formed (peptide-bound ferrous RufO)
O=O [O2] | 428 nm | 432 nm
nitric oxide [•NO] | 439 nm | 437 nm
